Results are given in words; binding and its absence hold for the method and conditions named. Binding calls can cover weak binding; strength is not graded here. For part of these data: Where a sequence is shown, tags or fusion partners need not be part of it. Each block holds one molecule with its values, some of them ahead of it.
Experiments:
DivIVA (B. subtilis) = target: T1, DivIVA (B. subtilis) (UniProt P71021); experiment: two-hybrid; bacterial two-hybrid (BACTH): fusions to adenylate cyclase fragments T18 and T25 cotransformed into E. coli BTH101 (delta cya); spotted on LB plates with X-Gal and 0.5 mM IPTG, 24 to 48 h at 30 °C; beta-galactosidase activity in Miller units
T1 sequence: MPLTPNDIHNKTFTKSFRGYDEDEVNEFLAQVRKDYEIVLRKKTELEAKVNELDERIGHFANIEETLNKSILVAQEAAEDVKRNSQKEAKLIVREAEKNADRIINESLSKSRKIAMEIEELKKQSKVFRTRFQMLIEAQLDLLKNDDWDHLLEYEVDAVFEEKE

[1] = target: T2, His-tagged cytosolic part of SpoIIE (375-827 aa) (B. subtilis) (UniProt P37475); experiment: SEC; Superdex S200 16/60 in 50 mM Tris-HCl pH 8.5, 300 mM NaCl; proteins applied separately or mixed (350 ul RefZ 28.8 uM premixed with 350 ul cyt-SpoIIE 15.5 uM, dialyzed overnight, 500 ul loaded); fractions analysed by anti-His Western blot; both purified
T2 sequence: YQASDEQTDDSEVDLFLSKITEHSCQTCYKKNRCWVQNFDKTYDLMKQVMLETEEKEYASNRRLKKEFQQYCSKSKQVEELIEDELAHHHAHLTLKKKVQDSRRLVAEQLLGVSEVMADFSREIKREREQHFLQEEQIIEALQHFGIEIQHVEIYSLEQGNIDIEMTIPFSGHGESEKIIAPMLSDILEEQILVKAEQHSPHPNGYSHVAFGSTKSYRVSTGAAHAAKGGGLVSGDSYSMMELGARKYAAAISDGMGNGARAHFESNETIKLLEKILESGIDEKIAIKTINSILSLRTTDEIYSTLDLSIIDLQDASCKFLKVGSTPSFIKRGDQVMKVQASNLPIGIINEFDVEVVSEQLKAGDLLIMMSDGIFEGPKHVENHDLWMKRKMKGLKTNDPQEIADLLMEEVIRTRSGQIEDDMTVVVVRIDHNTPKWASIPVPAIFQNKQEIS

RefZ (B. subtilis) = experiment: two-hybrid; bacterial two-hybrid (BACTH): fusions to adenylate cyclase fragments T18 and T25 cotransformed into E. coli BTH101 (delta cya); spotted on LB plates with X-Gal and 0.5 mM IPTG, 24 to 48 h at 30 °C; beta-galactosidase activity in Miller units

binding (DivIVA (B. subtilis)): binds
Molecule: SpoIIE membrane domain D1 + the regulatory domain D2 (D1D2-IIE) (B. subtilis) (domain or fragment)

binding [1]: binds
Molecule: His-tagged RefZ with His-tag fused to its N terminus (B. subtilis)

binding (RefZ (B. subtilis)): binds
B1: SpoIIE (protein, UniProt P37475 1-827)
chain: MEKAERRVNGPMAGQALEKLQSFFNRGTKLVTHHLHSLFFYKGFIYVVIGFLLGRAFILSEVLPFALPFFGAMLLIRRDKAFYAVLAVLAGALTISPKHSLLILAALLAFFVFSKVAAFITDDRVKALPIVVFFSMAAARAGFVYAQNGVFTTYDYVMAIVEAGLSFILTLIFLQSLPIFTVKKVKQSLKIEEIICFMILIASVLTGLAGLSYQGMQAEHILARYVVLSFSFIGGASIGCTVGVVTGLILGLANIGNLYQMSLLAFSGLLGGLLKEGKKAGAAIGLIVGSLLISLYGEGSAGLMTTLYESLIAVCLFLLTPQSITRKVARYIPGTVEHLQEQQQYARKIRDVTAQKVDQFSNVFHALSESFATFYQASDEQTDDSEVDLFLSKITEHSCQTCYKKNRCWVQNFDKTYDLMKQVMLETEEKEYASNRRLKKEFQQYCSKSKQVEELIEDELAHHHAHLTLKKKVQDSRRLVAEQLLGVSEVMADFSREIKREREQHFLQEEQIIEALQHFGIEIQHVEIYSLEQGNIDIEMTIPFSGHGESEKIIAPMLSDILEEQILVKAEQHSPHPNGYSHVAFGSTKSYRVSTGAAHAAKGGGLVSGDSYSMMELGARKYAAAISDGMGNGARAHFESNETIKLLEKILESGIDEKIAIKTINSILSLRTTDEIYSTLDLSIIDLQDASCKFLKVGSTPSFIKRGDQVMKVQASNLPIGIINEFDVEVVSEQLKAGDLLIMMSDGIFEGPKHVENHDLWMKRKMKGLKTNDPQEIADLLMEEVIRTRSGQIEDDMTVVVVRIDHNTPKWASIPVPAIFQNKQEIS

Source: PMC11154705, “Spatio-temporal control of asymmetric septum positioning during sporulation in Bacillus subtilis” (The Journal of Biological Chemistry, 2024)
